Tags and fusion partners may be left off the protein sequences shown.
What was measured:
Assay in all cases: activity assay
[1] = test system: T1, DNA polymerase 3173 (uncultured hot spring virus (Octopus Spring)); details: primer extension, 70 C, 2 mM MgSO4; 3'-5' exonuclease present; purified recombinant protein; label: 5'-ROX on primer
T1 sequence (limits assumed): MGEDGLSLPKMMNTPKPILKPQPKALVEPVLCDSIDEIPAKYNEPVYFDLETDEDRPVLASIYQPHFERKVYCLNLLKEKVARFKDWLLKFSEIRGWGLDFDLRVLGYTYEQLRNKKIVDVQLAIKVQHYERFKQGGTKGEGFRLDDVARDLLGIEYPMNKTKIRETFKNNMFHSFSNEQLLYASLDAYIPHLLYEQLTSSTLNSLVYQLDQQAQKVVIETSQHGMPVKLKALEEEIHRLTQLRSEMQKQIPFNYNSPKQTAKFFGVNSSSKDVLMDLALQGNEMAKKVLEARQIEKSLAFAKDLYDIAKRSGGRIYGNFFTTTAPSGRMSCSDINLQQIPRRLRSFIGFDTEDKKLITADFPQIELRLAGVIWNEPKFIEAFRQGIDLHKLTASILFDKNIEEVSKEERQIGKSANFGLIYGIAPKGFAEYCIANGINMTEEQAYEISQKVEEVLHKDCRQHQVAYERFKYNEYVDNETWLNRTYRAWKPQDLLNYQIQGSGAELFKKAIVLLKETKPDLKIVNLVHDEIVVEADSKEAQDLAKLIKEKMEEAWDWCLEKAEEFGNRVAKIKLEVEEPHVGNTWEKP

[2] = test system: T2, DNA polymerase clone 2323 (uncultured hot spring virus); details: primer extension, 70 C, 2 mM MgSO4; 3' exonuclease present; protein in a lysate after overexpression; label: 5'-ROX on primer
T2 sequence (limits assumed): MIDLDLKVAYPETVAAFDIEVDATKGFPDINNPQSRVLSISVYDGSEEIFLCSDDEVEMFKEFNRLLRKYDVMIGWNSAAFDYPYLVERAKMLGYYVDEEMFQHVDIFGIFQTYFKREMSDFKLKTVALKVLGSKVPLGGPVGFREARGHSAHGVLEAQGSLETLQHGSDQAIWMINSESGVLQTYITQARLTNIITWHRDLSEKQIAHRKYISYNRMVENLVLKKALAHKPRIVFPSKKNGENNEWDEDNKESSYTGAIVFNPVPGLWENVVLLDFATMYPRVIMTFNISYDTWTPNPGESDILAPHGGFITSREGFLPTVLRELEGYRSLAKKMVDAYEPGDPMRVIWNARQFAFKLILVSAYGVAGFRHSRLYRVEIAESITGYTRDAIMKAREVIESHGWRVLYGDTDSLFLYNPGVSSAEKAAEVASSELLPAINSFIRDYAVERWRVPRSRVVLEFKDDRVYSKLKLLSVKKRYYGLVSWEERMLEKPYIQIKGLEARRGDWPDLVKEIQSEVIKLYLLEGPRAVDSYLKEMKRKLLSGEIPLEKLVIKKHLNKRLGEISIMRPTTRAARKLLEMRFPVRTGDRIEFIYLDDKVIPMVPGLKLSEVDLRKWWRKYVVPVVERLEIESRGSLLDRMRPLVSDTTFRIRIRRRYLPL

[3] = test system: T3, DNA polymerase clone 3063 (uncultured hot spring virus); details: primer extension, 70 C, 2 mM MgSO4; 3' exonuclease present; protein in a lysate after overexpression; label: 5'-ROX on primer
T3 sequence (limits assumed): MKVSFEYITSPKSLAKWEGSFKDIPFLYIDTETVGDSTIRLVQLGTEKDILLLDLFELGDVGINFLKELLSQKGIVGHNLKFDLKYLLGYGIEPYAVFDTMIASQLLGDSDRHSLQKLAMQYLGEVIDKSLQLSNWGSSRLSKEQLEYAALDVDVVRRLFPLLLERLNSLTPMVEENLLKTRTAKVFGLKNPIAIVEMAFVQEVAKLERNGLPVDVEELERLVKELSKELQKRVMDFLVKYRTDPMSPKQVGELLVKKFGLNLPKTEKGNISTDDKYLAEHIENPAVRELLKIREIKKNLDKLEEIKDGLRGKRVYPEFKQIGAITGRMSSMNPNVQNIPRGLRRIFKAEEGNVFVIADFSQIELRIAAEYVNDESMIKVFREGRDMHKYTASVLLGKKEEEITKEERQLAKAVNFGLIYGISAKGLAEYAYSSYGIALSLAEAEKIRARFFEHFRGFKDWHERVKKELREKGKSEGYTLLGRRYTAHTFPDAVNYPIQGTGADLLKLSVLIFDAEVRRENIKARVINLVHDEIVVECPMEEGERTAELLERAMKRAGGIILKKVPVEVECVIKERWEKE

[4] = test system: T4, DNA polymerase clone 2783 (uncultured hot spring virus); details: primer extension, 70 C, 2 mM MgSO4; 3' exonuclease present; protein in a lysate after overexpression; label: 5'-ROX on primer
T4 sequence (limits assumed): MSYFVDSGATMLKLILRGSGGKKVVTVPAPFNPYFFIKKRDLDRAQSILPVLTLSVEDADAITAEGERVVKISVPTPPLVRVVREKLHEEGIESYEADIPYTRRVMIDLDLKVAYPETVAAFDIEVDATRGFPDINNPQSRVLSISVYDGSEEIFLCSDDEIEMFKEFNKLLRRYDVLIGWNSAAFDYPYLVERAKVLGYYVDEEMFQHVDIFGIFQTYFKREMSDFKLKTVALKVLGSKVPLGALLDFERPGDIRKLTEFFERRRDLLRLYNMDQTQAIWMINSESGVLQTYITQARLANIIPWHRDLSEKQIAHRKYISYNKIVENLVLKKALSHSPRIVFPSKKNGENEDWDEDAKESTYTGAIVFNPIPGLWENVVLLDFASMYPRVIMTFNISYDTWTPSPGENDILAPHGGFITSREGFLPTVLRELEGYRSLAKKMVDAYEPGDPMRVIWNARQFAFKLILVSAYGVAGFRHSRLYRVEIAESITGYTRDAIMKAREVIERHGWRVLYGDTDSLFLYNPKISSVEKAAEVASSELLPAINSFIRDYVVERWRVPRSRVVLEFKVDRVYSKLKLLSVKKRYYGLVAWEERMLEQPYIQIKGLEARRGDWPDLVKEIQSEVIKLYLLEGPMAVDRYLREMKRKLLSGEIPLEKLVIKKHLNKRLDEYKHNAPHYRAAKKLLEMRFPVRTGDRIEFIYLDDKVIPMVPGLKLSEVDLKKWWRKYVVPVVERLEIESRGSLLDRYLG

[5] = test system: T5, DNA polymerase clone 488 (uncultured hot spring virus); details: primer extension, 70 C, 2 mM MgSO4; no exonuclease; protein in a lysate after overexpression; label: 5'-ROX on primer
T5 sequence (limits assumed): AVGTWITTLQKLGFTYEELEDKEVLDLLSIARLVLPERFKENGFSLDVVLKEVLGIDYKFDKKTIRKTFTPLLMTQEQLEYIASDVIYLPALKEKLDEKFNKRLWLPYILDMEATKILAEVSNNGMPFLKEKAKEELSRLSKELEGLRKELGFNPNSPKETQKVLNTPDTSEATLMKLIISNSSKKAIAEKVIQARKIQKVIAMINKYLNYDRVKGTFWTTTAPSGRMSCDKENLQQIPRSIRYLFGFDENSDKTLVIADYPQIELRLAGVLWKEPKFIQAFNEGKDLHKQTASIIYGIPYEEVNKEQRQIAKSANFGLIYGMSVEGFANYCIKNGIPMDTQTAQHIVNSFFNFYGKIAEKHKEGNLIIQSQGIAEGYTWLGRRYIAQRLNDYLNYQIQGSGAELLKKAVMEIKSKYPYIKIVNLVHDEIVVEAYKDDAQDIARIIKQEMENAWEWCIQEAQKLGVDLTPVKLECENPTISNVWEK

[6] = test system: T6, DNA polymerase clone 4110 (uncultured hot spring virus); details: primer extension, 70 C, 2 mM MgSO4; no exonuclease; protein in a lysate after overexpression; label: 5'-ROX on primer
T6 sequence (limits assumed): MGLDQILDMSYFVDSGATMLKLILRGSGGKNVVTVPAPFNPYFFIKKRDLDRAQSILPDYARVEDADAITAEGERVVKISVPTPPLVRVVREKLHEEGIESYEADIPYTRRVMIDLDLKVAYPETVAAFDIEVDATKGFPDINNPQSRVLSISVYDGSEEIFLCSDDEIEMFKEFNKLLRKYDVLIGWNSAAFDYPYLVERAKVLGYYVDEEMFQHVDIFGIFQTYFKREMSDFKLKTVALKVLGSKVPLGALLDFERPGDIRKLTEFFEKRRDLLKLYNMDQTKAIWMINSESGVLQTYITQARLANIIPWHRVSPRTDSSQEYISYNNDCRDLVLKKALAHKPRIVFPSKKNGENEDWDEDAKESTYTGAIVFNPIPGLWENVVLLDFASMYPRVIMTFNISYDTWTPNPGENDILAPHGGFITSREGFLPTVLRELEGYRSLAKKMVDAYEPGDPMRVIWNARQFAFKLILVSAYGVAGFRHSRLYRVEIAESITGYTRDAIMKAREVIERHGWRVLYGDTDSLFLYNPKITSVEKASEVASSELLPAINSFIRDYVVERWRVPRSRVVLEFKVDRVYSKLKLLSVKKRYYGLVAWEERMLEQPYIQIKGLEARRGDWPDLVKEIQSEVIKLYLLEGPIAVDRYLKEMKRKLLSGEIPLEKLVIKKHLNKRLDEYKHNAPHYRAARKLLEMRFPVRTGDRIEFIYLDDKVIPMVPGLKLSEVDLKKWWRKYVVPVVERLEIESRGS

[7] = test system: T7, DNA polymerase clone 967 (uncultured hot spring virus (Octopus Spring)); details: primer extension, 70 C, 2 mM MgSO4; no exonuclease; protein in a lysate after overexpression; label: 5'-ROX on primer
T7 sequence (limits assumed): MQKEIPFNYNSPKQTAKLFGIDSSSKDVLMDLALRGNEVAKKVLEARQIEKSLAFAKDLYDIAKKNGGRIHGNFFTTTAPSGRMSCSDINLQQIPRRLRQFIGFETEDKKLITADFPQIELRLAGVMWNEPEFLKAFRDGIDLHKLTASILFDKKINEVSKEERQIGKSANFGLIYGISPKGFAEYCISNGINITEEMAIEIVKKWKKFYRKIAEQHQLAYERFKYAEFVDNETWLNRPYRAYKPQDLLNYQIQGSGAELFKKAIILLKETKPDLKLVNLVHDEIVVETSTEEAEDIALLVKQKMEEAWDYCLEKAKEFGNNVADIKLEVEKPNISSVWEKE

Measured: activity on this sequence

TGTCTCAGACAGTCAGACTGCTGACAGATGACTTGCA / AACGTGCAAGTCATCTGTCAGCAGTCTGACTGTCTGAGACA [37-mer primer/41-mer template]
active: all assays above

Reference: patent US20100291638
